Some results were stated once for a whole list of compounds, not compound by compound.
Molecular target: T1, Eg5 kinesin motor domains (Homo sapiens, UniProt P52732)
T1 construct: The ATPase activity of Eg5 kinesin motor domains (Cytoskeleton, cat. No. EG01); purchased Cytoskeleton EG01
T1 sequence (P52732 18-359 limits assumed): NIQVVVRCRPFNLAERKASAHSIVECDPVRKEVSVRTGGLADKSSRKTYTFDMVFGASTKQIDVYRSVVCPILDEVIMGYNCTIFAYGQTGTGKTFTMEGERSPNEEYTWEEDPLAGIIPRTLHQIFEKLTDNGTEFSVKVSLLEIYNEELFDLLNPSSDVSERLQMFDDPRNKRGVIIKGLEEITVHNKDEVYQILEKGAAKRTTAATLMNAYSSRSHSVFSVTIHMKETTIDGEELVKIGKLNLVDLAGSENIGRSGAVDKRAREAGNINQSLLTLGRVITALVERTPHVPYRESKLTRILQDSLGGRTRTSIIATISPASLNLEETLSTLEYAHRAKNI
Assay: ATPase activity of Eg5 kinesin motor domains (Malachite green)
Type: biochemical
Settings: 300 μM ATP, 250 nM microtubules, 30 min room temperature

SMILES	Inhibition of Eg5 activity, −log IC50 [mol/l]
CN(C(=O)N1N=C2c3cc(F)ccc3OCC2C1c1ccccc1)C1CCCNC1 (mixture of isomers) [Example 25, (3RS,3aRS)-8-Fluoro-3-phenyl-3a,4-dihydro-3H-chromeno[4,3-c]pyrazole-2-carboxylic acid (R)-methyl-piperidin-3-yl-amide and (3RS,3aRS)-8-Fluoro-3-phenyl-3a,4-dihydro-3H-chromeno[4,3-c]pyrazole-2-carboxylic acid (S)-methyl-piperidin-3-yl-amide]	compounds are all ≧6.2 mol/l
CN(C)C(=O)N1N=C2c3cc(F)ccc3OC[C@H]2[C@@H]1c1cccc(O)c1 (racemic) [Example 1, (3RS,3aSR)-8-Fluoro-3-(3-hydroxy-phenyl)-3a,4-dihydro-3H-chromeno[4,3-c]pyrazole-2-carboxylic acid dimethylamide]	compounds are all ≧6.2 mol/l
CN(C)C(=O)N1N=C2c3cc(F)ccc3OC[C@@H]2[C@@H]1c1cccc(O)c1 (racemic) [Example 2, (3RS,3aRS)-8-Fluoro-3-(3-hydroxy-phenyl)-3a,4-dihydro-3H-chromeno[4,3-c]pyrazole-2-carboxylic acid dimethylamide]	compounds are all ≧6.2 mol/l
CN(C)CCN(C)C(=O)N1N=C2c3cc(F)ccc3OC[C@@H]2[C@@H]1c1cccc(O)c1 (racemic) [Example 4, (3RS,3aRS)-8-Fluoro-3-(3-hydroxy-phenyl)-3a,4-dihydro-3H-chromeno[4,3-c]pyrazole-2-carboxylic acid (2-dimethylamino-ethyl)-methyl-amide]	compounds are all ≧6.2 mol/l
CN1CCC(N(C(=O)N2N=C3c4cc(F)ccc4OC[C@@H]3[C@@H]2c2cccc(O)c2)C2CC2)CC1 (racemic) [Example 5, (3RS,3aRS)-8-Fluoro-3-(3-hydroxy-phenyl)-3a,4-dihydro-3H-chromeno[4,3-c]pyrazole-2-carboxylic acid cyclopropyl-(1-methyl-piperidin-4-yl)-amide]	compounds are all ≧6.2 mol/l
CN(C)CCCN(C)C(=O)N1N=C2c3cc(F)ccc3OC[C@@H]2[C@@H]1c1cccc(O)c1 (racemic) [Example 6, (3RS,3aRS)-8-Fluoro-3-(3-hydroxy-phenyl)-3a,4-dihydro-3H-chromeno[4,3-c]pyrazole-2-carboxylic acid (3-dimethylamino-propyl)-methyl-amide]	compounds are all ≧6.2 mol/l
CN(C)C(=O)N1N=C2c3cc(F)ccc3OC[C@@H]2[C@@H]1c1ccccc1 (racemic) [Example 7, (3RS,3aRS)-8-Fluoro-3-phenyl-3a,4-dihydro-3H-chromeno[4,3-c]pyrazole-2-carboxylic acid dimethylamide]	compounds are all ≧6.2 mol/l
CN(C)C(=O)N1N=C2c3cc(F)ccc3OC[C@H]2[C@@H]1c1ccccc1 (racemic) [Example 8, (3RS,3aSR)-8-Fluoro-3-phenyl-3a,4-dihydro-3H-chromeno[4,3-c]pyrazole-2-carboxylic acid dimethylamide]	compounds are all ≧6.2 mol/l
CN1CCC(N(C)C(=O)N2N=C3c4cc(F)ccc4OC[C@@H]3[C@@H]2c2ccccc2)CC1 (racemic) [Example 9, (3RS,3aRS)-8-Fluoro-3-phenyl-3a,4-dihydro-3H-chromeno[4,3-c]pyrazole-2-carboxylic acid methyl-(1-methyl-piperidin-4-yl)-amide]	compounds are all ≧6.2 mol/l
CCN(CCN(C)C)C(=O)N1N=C2c3cc(F)ccc3OC[C@@H]2[C@@H]1c1ccccc1 (racemic) [Example 10, (3RS,3aRS)-8-Fluoro-3-phenyl-3a,4-dihydro-3H-chromeno[4,3-c]pyrazole-2-carboxylic acid (2-dimethylamino-ethyl)-ethyl-amide]	compounds are all ≧6.2 mol/l
CN(C)CCCN(C)C(=O)N1N=C2c3cc(F)ccc3OC[C@@H]2[C@@H]1c1ccccc1 (racemic) [Example 11, (3RS,3aRS)-8-Fluoro-3-phenyl-3a,4-dihydro-3H-chromeno[4,3-c]pyrazole-2-carboxylic acid (3-dimethylamino-propyl)-methyl-amide]	compounds are all ≧6.2 mol/l
CC(C)CN(C)C(=O)N1N=C2c3cc(F)ccc3OC[C@@H]2[C@@H]1c1ccccc1 (racemic) [Example 12, (3RS,3aRS)-8-Fluoro-3-phenyl-3a,4-dihydro-3H-chromeno[4,3-c]pyrazole-2-carboxylic acid isobutyl-methyl-amide]	compounds are all ≧6.2 mol/l
CC(C)N(C)C(=O)N1N=C2c3cc(F)ccc3OC[C@@H]2[C@@H]1c1ccccc1 (racemic) [Example 13, (3RS,3aRS)-8-Fluoro-3-phenyl-3a,4-dihydro-3H-chromeno[4,3-c]pyrazole-2-carboxylic acid isopropyl-methyl-amide]	compounds are all ≧6.2 mol/l
CCN(C)C(=O)N1N=C2c3cc(F)ccc3OC[C@@H]2[C@@H]1c1ccccc1 (racemic) [Example 14, (3RS,3aRS)-8-Fluoro-3-phenyl-3a,4-dihydro-3H-chromeno[4,3-c]pyrazole-2-carboxylic acid ethyl-methyl-amide]	compounds are all ≧6.2 mol/l
CN1CCC(N(C(=O)N2NC3c4cc(F)ccc4OC[C@H]3[C@@H]2c2ccccc2)C2CC2)CC1 (mixture of isomers) [Example 15, (3RS,3aRS)-8-Fluoro-3-phenyl-1,3a,4,9b-tetrahydro-3H-chromeno[4,3-c]pyrazole-2-carboxylic acid cyclopropyl-(1-methyl-piperidin-4-yl)-amide]	compounds are all ≧6.2 mol/l
CN(C(=O)N1N=C2c3cc(F)ccc3OC[C@@H]2[C@@H]1c1ccccc1)C1CCNCC1 (racemic) [Example 16, (3RS,3aRS)-8-Fluoro-3-phenyl-3a,4-dihydro-3H-chromeno[4,3-c]pyrazole-2-carboxylic acid methyl-piperidin-4-yl-amide]	compounds are all ≧6.2 mol/l
O=C(N(C1CCNCC1)C1CC1)N1N=C2c3cc(F)ccc3OC[C@@H]2[C@@H]1c1ccccc1 (racemic) [Example 17, (3RS,3aRS)-8-Fluoro-3-phenyl-3a,4-dihydro-3H-chromeno[4,3-c]pyrazole-2-carboxylic acid cyclopropyl-piperidin-4-yl-amide]	compounds are all ≧6.2 mol/l
CN(C)CCN(C)C(=O)N1N=C2c3cc(F)ccc3OC[C@@H]2[C@@H]1c1ccccc1 (racemic) [Example 19, (3RS,3aRS)-8-Fluoro-3-phenyl-3a,4-dihydro-3H-chromeno[4,3-c]pyrazole-2-carboxylic acid (2-dimethylamino-ethyl)-methyl-amide]	compounds are all ≧6.2 mol/l
CN(CCCN)C(=O)N1N=C2c3cc(F)ccc3OC[C@@H]2[C@@H]1c1ccccc1 (racemic) [Example 20, (3RS,3aRS)-8-Fluoro-3-phenyl-3a,4-dihydro-3H-chromeno[4,3-c]pyrazole-2-carboxylic acid (3-amino-propyl)-methyl-amide]	compounds are all ≧6.2 mol/l
CNCCCN(C)C(=O)N1N=C2c3cc(F)ccc3OC[C@@H]2[C@@H]1c1ccccc1 (racemic) [Example 22, (3RS,3aRS)-8-Fluoro-3-phenyl-3a,4-dihydro-3H-chromeno[4,3-c]pyrazole-2-carboxylic acid methyl-(3-methylamino-propyl)-amide]	compounds are all ≧6.2 mol/l
CNCCN(C)C(=O)N1N=C2c3cc(F)ccc3OC[C@@H]2[C@@H]1c1ccccc1 (racemic) [Example 23, (3RS,3aRS)-8-Fluoro-3-phenyl-3a,4-dihydro-3H-chromeno[4,3-c]pyrazole-2-carboxylic acid methyl-(2-methylamino-ethyl)-amide]	compounds are all ≧6.2 mol/l
CN(C(=O)N1N=C2c3cc(F)ccc3OC[C@@H]2[C@@H]1c1cccc(O)c1)C1CCNCC1 (racemic) [Example 27, (3RS,3aRS)-8-Fluoro-3-(3-hydroxy-phenyl)-3a,4-dihydro-3H-chromeno[4,3-c]pyrazole-2-carboxylic acid methyl-piperidin-4-yl-amide]	compounds are all ≧6.2 mol/l
CN(CCN1CCCC1)C(=O)N1N=C2c3cc(F)ccc3OC[C@@H]2[C@@H]1c1ccccc1 (racemic) [Example 28, (3RS,3aRS)-8-Fluoro-3-phenyl-3a,4-dihydro-3H-chromeno[4,3-c]pyrazole-2-carboxylic acid methyl-(2-pyrrolidin-1-yl-ethyl)-amide]	compounds are all ≧6.2 mol/l
CC(=O)N1CCN(CCN(C)C(=O)N2N=C3c4cc(F)ccc4OC[C@@H]3[C@@H]2c2ccccc2)CC1 (racemic) [Example 29, (3RS,3aRS)-8-Fluoro-3-phenyl-3a,4-dihydro-3H-chromeno[4,3-c]pyrazole-2-carboxylic acid [2-(4-acetyl-piperazin-1-yl)-ethyl]methyl-amide]	compounds are all ≧6.2 mol/l
CN(C)C(=O)N1N=C2c3cc(F)ccc3OC[C@H]2[C@@H]1c1cccc(O)c1 (single isomer, unassigned) [Example 2b, (−)-cis-8-Fluoro-3-(3-hydroxy-phenyl)-3a,4-dihydro-3H-chromeno[4,3-c]pyrazole-2-carboxylic acid dimethylamide]	compounds are all ≧6.2 mol/l

— US20100104659A1, “BENZOPYRANOPYRAZOLES” (priority 2006, published 2010)
